Measured values as given in paper PMC5974431.
Substitutions are numbered along the chain they refer to. Results are given in words; binding and its absence hold for the method and conditions named. Binding seen in cells or lysates may run through a third protein. Binding can be weak; no strength is given. For some assays here: Where a sequence is shown, tags or fusion partners need not be part of it.

T1: flag-2×HA-TIN2L-R282H+S396A (human) (UniProt Q9BSI4)
T1 sequence: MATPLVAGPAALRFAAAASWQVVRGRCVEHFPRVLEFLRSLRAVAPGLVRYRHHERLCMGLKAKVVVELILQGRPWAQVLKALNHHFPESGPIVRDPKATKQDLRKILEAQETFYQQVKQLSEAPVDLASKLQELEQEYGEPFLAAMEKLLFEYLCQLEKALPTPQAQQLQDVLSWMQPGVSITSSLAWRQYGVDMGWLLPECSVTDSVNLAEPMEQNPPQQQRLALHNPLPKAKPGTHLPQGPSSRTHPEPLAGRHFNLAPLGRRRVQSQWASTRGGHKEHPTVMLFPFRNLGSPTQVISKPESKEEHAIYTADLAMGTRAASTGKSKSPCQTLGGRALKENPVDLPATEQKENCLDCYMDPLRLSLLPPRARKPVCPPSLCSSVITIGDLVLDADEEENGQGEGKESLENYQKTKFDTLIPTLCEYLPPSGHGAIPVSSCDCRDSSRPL

T2: flag-2×HA-TIN2L-S396A (human) (UniProt Q9BSI4)
T2 sequence: T1 sequence with H282R

T3: flag-2×HA-TIN2L-R282H (human) (UniProt Q9BSI4)
T3 sequence (chain, R282H did not affect TIN2L phosphorylation (Phos-tag)): T1 sequence with A396S

T4: flag-2×HA-TIN2L-S396E (human) (UniProt Q9BSI4)
T4 sequence: T1 sequence with H282R, A396E

T5: flag-2×HA-TIN2S (human) (UniProt Q9BSI4)
T5 sequence: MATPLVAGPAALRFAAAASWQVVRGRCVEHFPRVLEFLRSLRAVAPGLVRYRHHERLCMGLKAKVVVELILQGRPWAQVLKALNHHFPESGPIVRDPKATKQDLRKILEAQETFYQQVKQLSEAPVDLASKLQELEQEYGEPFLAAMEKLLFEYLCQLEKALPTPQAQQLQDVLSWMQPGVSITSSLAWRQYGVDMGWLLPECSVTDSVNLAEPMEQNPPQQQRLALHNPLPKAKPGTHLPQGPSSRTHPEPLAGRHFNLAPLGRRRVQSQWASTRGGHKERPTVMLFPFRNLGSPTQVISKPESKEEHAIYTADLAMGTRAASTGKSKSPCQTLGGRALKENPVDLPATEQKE

T6: flag-2×HA-TIN2S-R282H (human) (UniProt Q9BSI4)
T6 sequence: T5 sequence with R282H

B1: TIN2L-V2 (protein, UniProt Q9BSI4-1 1-451)
chain: T1 sequence with H282R, A396S

Legend:
[1] = biological target: T1, flag-2×HA-TIN2L-R282H+S396A (human); assay: co-IP; HEK 293T cells cotransfected with 5 μg of each plasmid, lysed after 24 h (lysis buffer with 400 mM NaCl, 1% Triton X-100, 0.1% SDS, then an equal amount of water); supernatants incubated overnight at 4°C with anti-FLAG M2 magnetic beads or anti-Myc 9E10; immunoblot; the co-precipitated TRF1, TRF2 or TPP1 divided by the TIN2 precipitated and normalised to TIN2S
[2] = biological target: T2, flag-2×HA-TIN2L-S396A (human); assay: as above
[3] = biological target: T3, flag-2×HA-TIN2L-R282H (human); assay: as above
[4] = biological target: T4, flag-2×HA-TIN2L-S396E (human); assay: as above
flag-2×HA-TIN2S (human) = biological target: T5, flag-2×HA-TIN2S (human); assay: as above
[5] = biological target: T6, flag-2×HA-TIN2S-R282H (human); assay: as above
V1-TRF2 = assay: split reporter; protein fragment complementation assay (PCA) with split Venus: TIN2L fused with V2 (C-terminal half), TRF2 with V1 (N-terminal half), cotransfected; fluorescence measured

Molecule	binding [1]	binding [2]	binding [3]	binding [4]	binding (flag-2×HA-TIN2S (human))	binding [5]	binding (V1-TRF2)
myc-TRF2	binds	binds	binds	binds	binds	binds	
myc-TRF2-F120A					binds		
B1							binds
